Data: article PMC10115800, “Two assembly modes for SIN3 histone deacetylase complexes” (Cell Discovery, 2023)
These are yes or no findings as the source states them, for the method shown. A result given as binding can be weak or reduced; the word gives no strength. For part of these data: Where a sequence is shown, tags or fusion partners need not be part of it. One block for each molecule: values may come before it.

Experiments:
[1] = molecular target: T1, Pst2 with C-terminal 3× Flag-tag (S. pombe, UniProt O13919 1-1075); assay: cryo-EM structure; endogenous SIN3S complex purified from the Pst2-3×Flag S. pombe strain, cross-linked with 1 mM BS3; 20 mM HEPES pH 7.4, 50 mM NaCl, 2 mM DTT; 2.9 Å; both purified
T1 construct: Pst2, Sin3 homolog of S. pombe, organising subunit of the SIN3S complex; all five domains (PAH1/2/3, HID, HCR) are resolved; also called Pst2-Flag; Sin3 isoform Pst2; source: endogenous locus tagged, S. pombe; purified (ANTI-FLAG M2 resin, glycerol gradient); not shown: 3× Flag, C-terminal, kept
T1 sequence (looked up): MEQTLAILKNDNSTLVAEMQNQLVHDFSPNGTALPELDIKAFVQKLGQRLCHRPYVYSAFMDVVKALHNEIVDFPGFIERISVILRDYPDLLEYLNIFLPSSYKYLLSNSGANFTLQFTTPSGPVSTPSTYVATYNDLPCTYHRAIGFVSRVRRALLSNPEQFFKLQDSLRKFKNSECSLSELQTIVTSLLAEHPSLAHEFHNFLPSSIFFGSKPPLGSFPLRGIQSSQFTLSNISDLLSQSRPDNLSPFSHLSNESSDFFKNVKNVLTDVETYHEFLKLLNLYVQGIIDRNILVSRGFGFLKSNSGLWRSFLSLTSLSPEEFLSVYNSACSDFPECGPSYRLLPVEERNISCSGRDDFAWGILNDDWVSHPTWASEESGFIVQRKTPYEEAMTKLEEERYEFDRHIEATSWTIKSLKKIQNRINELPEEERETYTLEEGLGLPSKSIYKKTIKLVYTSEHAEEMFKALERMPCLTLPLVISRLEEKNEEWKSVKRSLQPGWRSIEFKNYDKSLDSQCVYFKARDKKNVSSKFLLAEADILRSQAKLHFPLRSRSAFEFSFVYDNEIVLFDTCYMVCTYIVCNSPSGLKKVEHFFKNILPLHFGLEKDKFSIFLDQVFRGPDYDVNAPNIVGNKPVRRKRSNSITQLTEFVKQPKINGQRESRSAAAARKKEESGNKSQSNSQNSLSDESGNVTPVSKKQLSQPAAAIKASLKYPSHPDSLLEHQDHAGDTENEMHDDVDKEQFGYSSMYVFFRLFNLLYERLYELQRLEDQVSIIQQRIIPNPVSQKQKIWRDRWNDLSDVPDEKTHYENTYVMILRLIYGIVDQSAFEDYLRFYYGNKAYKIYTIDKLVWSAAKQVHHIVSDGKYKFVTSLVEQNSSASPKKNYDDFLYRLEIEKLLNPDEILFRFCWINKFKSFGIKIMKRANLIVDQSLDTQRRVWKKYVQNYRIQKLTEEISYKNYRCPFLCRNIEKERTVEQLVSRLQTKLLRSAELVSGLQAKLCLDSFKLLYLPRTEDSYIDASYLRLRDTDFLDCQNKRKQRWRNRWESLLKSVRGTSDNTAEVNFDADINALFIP

Dep1 = molecular target: T2, Dep1 (S. pombe, UniProt Q9P7M1 1-491); assay: cryo-EM structure; endogenous SIN3L complex purified from the Pst3-3×Flag S. pombe strain, cross-linked with 1 mM BS3; 20 mM HEPES pH 7.4, 50 mM NaCl, 2 mM DTT; 3.2 Å; both purified
T2 construct: Dep1 of S. pombe, scaffold subunit of the SIN3L complex; Endogenous protein; source: endogenous, S. pombe; co-purified with Pst3-3×Flag (ANTI-FLAG M2 resin, glycerol gradient)
T2 sequence (looked up): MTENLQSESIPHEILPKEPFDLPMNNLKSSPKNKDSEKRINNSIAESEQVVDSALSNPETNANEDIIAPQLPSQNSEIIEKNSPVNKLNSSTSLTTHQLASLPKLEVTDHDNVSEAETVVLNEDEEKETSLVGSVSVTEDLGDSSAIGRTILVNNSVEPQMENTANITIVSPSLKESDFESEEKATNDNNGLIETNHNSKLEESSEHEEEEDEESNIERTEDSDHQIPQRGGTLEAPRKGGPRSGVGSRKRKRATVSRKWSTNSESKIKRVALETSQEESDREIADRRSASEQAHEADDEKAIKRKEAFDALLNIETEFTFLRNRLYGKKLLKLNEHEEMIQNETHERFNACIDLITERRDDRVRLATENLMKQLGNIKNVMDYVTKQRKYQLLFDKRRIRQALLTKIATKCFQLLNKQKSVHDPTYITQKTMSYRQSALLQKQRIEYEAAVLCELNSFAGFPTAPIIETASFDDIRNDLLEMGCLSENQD

Png2 (S. pombe) = molecular target: T3, Png2 (S. pombe) (UniProt O74736); assay: as above
T3 sequence: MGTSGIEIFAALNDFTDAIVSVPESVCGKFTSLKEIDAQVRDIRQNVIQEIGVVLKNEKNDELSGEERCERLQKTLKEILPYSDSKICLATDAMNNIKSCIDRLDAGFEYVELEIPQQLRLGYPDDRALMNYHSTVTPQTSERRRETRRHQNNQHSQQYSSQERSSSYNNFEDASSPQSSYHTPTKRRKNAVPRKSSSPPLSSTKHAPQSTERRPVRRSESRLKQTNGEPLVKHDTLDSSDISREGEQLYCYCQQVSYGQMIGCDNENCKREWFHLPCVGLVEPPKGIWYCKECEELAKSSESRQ

[2] = molecular target: T4, histone deacetylase Clr6 (S. pombe) (UniProt O59702); assay: as above
T4 sequence: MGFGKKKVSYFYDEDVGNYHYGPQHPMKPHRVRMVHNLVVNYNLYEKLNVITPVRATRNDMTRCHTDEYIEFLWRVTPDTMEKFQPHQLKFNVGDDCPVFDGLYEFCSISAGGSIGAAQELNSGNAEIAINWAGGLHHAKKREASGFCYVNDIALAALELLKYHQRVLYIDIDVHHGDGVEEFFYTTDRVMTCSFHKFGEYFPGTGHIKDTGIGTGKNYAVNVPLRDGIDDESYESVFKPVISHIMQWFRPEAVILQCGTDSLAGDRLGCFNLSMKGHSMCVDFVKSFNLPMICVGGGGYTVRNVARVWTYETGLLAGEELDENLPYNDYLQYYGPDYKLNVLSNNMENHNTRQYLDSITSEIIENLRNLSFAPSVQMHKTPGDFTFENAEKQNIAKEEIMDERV

Rxt3 (S. pombe) = molecular target: T5, Rxt3 (S. pombe) (UniProt O94707); assay: as above
T5 sequence: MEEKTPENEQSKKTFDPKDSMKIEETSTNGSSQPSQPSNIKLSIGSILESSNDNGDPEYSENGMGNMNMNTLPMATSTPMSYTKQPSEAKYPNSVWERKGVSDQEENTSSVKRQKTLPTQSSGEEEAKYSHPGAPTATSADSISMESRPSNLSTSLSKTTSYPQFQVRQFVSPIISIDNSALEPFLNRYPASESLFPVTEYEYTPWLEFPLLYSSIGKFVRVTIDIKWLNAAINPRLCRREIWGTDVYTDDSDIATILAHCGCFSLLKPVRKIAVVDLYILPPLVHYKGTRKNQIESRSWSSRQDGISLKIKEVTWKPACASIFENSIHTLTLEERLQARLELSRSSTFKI

[3] = molecular target: T6, Pst3 with C-terminal 3× Flag-tag (S. pombe, UniProt O74755 1-1154); assay: as above
T6 construct: Pst3, Sin3 homolog of S. pombe, subunit of the SIN3L complex; PAH3, HID and HCR are resolved in the model; Endogenous protein; also called Pst3-Flag; Sin3 isoform Pst3; source: endogenous locus tagged, S. pombe; purified (ANTI-FLAG M2 resin, glycerol gradient); not shown: 3× Flag, C-terminal, kept
T6 sequence (looked up): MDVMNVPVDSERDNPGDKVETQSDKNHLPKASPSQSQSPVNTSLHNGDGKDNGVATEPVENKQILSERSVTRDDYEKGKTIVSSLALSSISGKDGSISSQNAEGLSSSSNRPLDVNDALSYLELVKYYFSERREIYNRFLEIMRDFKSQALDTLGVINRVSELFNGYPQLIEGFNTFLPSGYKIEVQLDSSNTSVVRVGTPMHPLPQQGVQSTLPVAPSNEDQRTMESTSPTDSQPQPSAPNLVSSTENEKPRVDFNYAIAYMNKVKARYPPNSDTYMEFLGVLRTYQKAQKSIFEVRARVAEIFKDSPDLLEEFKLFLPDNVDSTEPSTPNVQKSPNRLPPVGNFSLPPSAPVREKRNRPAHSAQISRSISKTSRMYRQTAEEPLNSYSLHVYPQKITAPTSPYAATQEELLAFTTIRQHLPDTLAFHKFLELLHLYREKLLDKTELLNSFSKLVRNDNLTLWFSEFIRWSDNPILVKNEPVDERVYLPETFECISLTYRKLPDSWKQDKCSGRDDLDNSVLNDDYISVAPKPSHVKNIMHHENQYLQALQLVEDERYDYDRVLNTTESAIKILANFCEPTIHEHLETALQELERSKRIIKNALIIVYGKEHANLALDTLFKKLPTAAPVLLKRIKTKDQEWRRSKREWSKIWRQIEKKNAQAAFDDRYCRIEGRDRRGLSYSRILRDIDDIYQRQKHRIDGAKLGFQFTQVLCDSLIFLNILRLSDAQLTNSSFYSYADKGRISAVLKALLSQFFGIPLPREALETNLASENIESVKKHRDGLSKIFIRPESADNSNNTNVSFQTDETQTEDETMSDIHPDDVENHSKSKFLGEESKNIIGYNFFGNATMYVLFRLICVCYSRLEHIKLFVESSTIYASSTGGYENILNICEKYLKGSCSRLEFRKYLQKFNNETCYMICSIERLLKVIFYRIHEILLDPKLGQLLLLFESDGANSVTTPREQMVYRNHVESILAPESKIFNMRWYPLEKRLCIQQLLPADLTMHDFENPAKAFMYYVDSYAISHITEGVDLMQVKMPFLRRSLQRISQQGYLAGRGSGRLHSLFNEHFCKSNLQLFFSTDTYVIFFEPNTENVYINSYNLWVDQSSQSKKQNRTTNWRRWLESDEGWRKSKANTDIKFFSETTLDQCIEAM

Cph2 (S. pombe) = assay: cryo-EM structure; endogenous SIN3S complex purified from the Pst2-3×Flag S. pombe strain, cross-linked with 1 mM BS3; 20 mM HEPES pH 7.4, 50 mM NaCl, 2 mM DTT; 2.9 Å; both purified
Cph1 (S. pombe) = assay: as above

binding [1]: binds
Molecule: Cph2 (S. pombe)

binding [1]: binds
Molecule: Cph1 (S. pombe)

binding (Dep1): binds | binding (Png2 (S. pombe)): binds | binding [2]: binds | binding (Rxt3 (S. pombe)): binds | binding [3]: binds
Molecule: Rxt2 (S. pombe)

binding (Cph2 (S. pombe)): binds | binding (Cph1 (S. pombe)): binds
B1: Eaf3 (protein, UniProt O13953 1-337)
chain: MAVSYKVNERVLCFHGPLLYEAKIVDTEMKGDVTTYLIHYKGWKNSWDEWVEQDRILQWTEENLKTQKELKNAAISTRQKPTSKKSASSTSKHDSTGVKTSGKRSRESSTVTVDGDSHELPSRIKTQKSESPIPQQVKRDGTTDAKNEETTKPENNEKDDFEEEPPLPKHKISVPDVLKLWLVDDWENITKNQQLIAIPRNPTVRAAIAAFRESKISHLNNEIDVDVFEQAMAGLVIYFNKCLGNMLLYRFERQQYLEIRQQYPDTEMCDLYGVEHLIRLFVSLPELIDRTNMDSQSIECLLNYIEEFLKYLVLHKDEYFIKEYQNAPPNYRSLVGV
